# According to paper PMC4595830:
# The chains behind the UniProt entries cited, without tags or fusion partners.
# UniProt Q91YH6: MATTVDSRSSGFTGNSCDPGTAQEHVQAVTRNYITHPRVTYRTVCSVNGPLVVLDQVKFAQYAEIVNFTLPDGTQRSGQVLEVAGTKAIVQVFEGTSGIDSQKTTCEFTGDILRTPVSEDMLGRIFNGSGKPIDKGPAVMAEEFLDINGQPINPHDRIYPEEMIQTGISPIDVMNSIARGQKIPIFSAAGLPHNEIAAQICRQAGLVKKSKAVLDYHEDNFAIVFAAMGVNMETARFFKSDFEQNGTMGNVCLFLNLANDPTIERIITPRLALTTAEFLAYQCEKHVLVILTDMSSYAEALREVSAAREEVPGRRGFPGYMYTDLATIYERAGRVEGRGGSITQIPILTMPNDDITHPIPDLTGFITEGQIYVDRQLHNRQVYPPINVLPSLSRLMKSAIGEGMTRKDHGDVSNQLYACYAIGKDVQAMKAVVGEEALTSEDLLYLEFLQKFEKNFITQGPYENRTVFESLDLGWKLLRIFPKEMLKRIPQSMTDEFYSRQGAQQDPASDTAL
# UniProt P50516: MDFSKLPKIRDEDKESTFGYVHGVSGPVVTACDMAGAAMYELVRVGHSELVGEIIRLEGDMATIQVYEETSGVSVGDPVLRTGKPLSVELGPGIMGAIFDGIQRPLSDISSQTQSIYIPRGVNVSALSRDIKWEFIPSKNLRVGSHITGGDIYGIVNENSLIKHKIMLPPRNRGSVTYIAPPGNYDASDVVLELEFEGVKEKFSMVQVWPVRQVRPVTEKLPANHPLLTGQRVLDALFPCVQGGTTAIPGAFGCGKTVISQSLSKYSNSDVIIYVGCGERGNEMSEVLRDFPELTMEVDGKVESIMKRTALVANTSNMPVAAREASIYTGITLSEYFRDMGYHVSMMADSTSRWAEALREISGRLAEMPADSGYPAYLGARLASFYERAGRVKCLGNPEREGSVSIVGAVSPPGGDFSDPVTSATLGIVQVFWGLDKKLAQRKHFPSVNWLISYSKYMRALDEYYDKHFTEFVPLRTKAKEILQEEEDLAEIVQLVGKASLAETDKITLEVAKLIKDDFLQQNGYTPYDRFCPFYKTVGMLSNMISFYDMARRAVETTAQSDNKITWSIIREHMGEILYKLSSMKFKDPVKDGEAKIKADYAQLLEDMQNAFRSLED
# UniProt Q9D1K2: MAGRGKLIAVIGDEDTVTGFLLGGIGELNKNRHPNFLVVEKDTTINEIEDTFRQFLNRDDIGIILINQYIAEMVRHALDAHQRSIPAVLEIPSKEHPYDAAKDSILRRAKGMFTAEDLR
# UniProt Q8BVE3: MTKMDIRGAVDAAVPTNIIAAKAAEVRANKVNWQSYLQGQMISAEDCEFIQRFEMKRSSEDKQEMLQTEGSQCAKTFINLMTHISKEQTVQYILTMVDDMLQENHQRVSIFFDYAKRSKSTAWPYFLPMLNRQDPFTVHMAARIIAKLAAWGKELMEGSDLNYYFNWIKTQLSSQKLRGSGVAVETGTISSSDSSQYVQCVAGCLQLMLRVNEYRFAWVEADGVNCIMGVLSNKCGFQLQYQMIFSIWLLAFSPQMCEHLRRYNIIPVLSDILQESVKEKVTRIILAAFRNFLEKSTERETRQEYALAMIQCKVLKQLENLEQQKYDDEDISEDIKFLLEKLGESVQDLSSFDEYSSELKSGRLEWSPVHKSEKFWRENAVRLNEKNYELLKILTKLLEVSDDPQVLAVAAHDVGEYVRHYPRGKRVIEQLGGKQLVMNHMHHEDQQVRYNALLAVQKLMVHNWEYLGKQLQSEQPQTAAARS
# UniProt P80317: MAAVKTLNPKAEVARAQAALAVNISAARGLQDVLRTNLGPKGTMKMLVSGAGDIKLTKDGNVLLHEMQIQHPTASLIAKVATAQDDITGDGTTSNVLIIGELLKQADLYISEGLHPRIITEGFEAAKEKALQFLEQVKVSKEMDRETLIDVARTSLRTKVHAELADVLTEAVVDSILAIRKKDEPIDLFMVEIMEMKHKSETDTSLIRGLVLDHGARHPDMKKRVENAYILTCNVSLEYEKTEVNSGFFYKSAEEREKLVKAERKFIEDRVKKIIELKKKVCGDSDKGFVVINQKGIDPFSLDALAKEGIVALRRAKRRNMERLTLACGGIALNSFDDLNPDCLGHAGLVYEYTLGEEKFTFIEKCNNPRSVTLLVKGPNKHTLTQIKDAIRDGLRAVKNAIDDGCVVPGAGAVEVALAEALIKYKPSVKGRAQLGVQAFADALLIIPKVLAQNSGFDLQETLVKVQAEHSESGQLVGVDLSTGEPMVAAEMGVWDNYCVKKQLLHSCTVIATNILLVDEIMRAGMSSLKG
# UniProt P18654: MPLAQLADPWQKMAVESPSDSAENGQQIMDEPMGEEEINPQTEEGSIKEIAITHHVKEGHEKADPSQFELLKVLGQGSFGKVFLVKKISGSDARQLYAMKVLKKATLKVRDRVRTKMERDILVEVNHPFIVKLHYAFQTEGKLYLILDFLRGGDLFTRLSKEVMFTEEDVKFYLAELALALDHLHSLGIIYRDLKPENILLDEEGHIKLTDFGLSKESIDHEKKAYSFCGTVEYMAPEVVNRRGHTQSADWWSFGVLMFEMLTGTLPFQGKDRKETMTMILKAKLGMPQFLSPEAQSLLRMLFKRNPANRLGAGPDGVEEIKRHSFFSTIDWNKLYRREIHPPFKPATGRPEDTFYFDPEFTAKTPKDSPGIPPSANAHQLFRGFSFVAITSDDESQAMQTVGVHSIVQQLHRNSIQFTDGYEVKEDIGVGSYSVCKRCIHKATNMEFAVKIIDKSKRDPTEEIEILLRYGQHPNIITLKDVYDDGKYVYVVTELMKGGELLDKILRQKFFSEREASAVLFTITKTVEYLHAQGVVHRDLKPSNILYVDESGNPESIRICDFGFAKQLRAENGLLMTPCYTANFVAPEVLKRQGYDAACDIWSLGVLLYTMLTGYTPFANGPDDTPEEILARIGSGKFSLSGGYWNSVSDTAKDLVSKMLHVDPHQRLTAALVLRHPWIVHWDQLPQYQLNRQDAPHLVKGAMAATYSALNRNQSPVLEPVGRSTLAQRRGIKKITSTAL
# UniProt P11983: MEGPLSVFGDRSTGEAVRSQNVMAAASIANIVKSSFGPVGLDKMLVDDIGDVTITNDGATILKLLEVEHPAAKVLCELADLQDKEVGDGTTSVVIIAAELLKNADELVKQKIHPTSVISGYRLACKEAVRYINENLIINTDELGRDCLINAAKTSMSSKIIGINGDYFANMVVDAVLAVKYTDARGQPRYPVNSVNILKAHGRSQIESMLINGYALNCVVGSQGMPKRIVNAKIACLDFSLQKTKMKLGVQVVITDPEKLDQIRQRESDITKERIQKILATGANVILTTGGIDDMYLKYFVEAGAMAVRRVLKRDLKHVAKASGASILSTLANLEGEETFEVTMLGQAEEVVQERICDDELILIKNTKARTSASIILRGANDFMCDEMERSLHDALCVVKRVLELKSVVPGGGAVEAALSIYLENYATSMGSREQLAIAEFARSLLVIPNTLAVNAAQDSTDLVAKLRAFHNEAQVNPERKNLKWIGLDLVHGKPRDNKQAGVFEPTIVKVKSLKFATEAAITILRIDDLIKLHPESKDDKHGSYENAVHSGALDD
# UniProt Q8BPN8: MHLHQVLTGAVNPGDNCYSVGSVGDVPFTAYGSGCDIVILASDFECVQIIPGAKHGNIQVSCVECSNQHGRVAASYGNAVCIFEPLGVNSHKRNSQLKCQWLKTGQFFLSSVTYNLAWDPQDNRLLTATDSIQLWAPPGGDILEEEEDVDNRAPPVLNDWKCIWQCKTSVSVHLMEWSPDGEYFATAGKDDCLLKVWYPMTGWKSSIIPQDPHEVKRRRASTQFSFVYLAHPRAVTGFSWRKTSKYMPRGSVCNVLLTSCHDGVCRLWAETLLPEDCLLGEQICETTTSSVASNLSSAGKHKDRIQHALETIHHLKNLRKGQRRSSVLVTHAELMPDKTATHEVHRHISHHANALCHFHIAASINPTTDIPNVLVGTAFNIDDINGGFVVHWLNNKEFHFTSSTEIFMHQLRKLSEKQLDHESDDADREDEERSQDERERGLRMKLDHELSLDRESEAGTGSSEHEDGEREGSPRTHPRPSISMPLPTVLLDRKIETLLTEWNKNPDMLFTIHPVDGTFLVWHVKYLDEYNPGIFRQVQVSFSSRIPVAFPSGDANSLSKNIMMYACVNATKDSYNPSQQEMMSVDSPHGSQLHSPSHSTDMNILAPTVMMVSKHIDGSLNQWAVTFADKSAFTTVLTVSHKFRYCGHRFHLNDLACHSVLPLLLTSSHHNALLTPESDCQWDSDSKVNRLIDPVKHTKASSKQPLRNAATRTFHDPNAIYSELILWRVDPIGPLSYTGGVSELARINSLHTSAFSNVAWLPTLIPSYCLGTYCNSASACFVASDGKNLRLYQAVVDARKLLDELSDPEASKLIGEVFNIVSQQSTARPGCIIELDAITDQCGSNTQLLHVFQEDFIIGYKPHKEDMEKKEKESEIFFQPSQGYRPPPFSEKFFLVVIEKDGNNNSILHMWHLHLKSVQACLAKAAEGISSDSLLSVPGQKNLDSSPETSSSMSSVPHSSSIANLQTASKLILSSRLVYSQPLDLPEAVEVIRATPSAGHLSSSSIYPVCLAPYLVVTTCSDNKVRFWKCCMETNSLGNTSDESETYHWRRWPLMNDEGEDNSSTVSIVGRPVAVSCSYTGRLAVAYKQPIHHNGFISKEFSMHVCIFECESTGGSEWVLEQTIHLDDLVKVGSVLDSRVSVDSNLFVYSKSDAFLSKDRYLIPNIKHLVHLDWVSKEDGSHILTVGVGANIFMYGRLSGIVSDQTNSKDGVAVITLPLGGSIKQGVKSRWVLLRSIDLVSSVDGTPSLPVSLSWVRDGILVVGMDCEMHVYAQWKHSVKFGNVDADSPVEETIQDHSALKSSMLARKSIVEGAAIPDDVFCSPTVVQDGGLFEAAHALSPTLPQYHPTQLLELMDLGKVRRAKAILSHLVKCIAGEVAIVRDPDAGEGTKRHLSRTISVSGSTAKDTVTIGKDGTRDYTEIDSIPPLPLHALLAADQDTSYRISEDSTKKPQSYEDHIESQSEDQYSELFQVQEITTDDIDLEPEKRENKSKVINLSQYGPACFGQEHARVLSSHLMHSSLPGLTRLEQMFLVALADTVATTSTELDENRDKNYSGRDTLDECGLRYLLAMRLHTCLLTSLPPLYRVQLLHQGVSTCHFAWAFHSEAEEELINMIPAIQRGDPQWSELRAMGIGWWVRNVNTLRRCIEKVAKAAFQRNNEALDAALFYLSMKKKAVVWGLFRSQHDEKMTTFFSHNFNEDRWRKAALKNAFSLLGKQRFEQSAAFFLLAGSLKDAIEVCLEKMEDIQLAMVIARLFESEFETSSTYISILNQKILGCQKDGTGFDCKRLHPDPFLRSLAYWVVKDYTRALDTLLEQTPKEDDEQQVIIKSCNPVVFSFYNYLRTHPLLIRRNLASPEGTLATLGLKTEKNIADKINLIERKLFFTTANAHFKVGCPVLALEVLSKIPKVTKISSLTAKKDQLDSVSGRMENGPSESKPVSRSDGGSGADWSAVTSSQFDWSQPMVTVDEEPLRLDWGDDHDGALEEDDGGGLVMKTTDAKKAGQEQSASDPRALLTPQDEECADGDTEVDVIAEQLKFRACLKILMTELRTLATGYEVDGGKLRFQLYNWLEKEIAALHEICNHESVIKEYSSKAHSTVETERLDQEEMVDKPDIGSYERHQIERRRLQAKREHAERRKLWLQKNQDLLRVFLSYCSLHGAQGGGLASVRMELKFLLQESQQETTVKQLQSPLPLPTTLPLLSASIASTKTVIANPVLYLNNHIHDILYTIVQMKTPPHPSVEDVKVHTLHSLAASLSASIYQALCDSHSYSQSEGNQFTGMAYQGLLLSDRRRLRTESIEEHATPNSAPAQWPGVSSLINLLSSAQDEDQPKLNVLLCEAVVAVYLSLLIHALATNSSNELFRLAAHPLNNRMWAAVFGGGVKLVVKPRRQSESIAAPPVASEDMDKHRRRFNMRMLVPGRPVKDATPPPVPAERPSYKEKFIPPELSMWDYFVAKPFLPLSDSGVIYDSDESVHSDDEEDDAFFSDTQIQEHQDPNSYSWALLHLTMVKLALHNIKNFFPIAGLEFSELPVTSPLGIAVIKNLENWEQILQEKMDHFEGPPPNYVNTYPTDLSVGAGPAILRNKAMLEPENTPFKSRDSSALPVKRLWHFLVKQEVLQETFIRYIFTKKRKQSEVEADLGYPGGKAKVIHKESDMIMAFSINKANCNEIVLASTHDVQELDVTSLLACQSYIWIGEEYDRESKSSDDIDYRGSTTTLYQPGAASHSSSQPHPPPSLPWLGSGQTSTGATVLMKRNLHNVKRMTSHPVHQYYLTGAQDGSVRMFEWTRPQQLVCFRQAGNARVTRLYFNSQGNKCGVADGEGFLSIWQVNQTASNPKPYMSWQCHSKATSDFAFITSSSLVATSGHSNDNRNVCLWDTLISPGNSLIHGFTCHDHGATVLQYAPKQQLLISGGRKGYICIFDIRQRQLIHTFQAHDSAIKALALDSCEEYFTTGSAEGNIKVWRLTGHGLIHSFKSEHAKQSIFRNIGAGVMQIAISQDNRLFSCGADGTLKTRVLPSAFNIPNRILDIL
# Results are given in words; binding and its absence hold for the method and conditions named. In cells and extracts the contact can be indirect. A yes stands for co-enrichment or nearness to the bait. Other partners may have been found. For some of these results: A no says only that the protein was not detected with the bait.
# Target: ATPase, H+ transporting, lysosomal V1 subunit B1 (mouse (endogenous in kidney)) (UniProt Q91YH6)
# Test: affinity purification with mass spectrometry; anti-ATP6V1B1 antibodies cross-linked to Protein A/G Plus agarose; mouse kidney lysate (20 mM Hepes-NaOH pH 7.5, 150 mM NaCl, 1% NP-40); SDS-PAGE, LC-MS/MS, scored with CRAPome/SAINT against beads-only, B1-knockout and peptide-blocked controls
row,Molecule,binding
1,ATP6V0A3 (from UniProt Q9JHF5),no binding
2,ATP6V0B (from UniProt Q91V37 1-205),no binding
3,"ATPase, H+ transporting, lysosomal V1 subunit A (from UniProt P50516 1-617)",binds
4,"ATPase, H+ transporting, lysosomal V1 subunit D (from UniProt P57746 1-247)",binds
5,"ATPase, H+ transporting, lysosomal V1 subunit F (from UniProt Q9D1K2 1-119)",binds
6,"ATPase, H+ transporting, lysosomal V1 subunit H (from UniProt Q8BVE3 1-483)",binds
7,Dmx-like 1 (from UniProt Q6PNC0 1-3013),binds
8,WD repeat domain 7 (from UniProt Q920I9 1-1489),binds
9,"chaperonin containing Tcp1, subunit 5 (epsilon) (from UniProt P80316 1-541)",binds
10,"chaperonin containing Tcp1, subunit 6a (zeta) (from UniProt P80317 1-531)",binds
11,ribosomal protein S6 kinase polypeptide 3 (from UniProt P18654 1-740),binds
12,t-complex protein 1 (from UniProt P11983 1-556),binds

# Results, then the molecule that gave them:
row,binding,Molecule
1,no binding,ATP6V0A2 (from UniProt P15920 1-856)
2,no binding,ATP6V0E2 (from UniProt Q91XE7 1-81)
3,binds,Dmx-like 2 (from UniProt Q8BPN8 1-3032)
4,binds,"chaperonin containing Tcp1, subunit 6b (zeta) (from UniProt Q61390 1-531)"

# Target: ATPase, H+ transporting, lysosomal V1 subunit B1 (mouse (endogenous in kidney)) (UniProt Q91YH6)
# Test: as above
# Remark: another data set of the same source
row,Molecule,binding
1,"solute carrier family 10, member 2 (protein, UniProt P70172 1-348) MDNSSVCPPNATVCEGDSCVVPESNFNAILNTVMSTVLTILLAMVMFSMGCNVEVHKFLGHIKRPWGIFVGFLCQFGIMPLTGFILSVASGILPVQAVVVLIMGCCPGGTGSNILAYWIDGDMDLSVSMTTCSTLLALGMMPLCLFVYTKMWVDSGTIVIPYDSIGISLVALVIPVSFGMFVNHKWPQKAKIILKIGSITGVILIVLIAVIGGILYQSAWIIEPKLWIIGTIFPIAGYSLGFFLARLAGQPWYRCRTVALETGMQNTQLCSTIVQLSFSPEDLNLVFTFPLIYTVFQLVFAAVILGIYVTYRKCYGKNDAEFLEKTDNEMDSRPSFDETNKGFQPDEK",binds
2,"chaperonin containing Tcp1, subunit 3 (gamma) (protein, UniProt P80318 1-545) MMGHRPVLVLSQNTKRESGRKVQSGNINAAKTIADIIRTCLGPKSMMKMLLDPMGGIVMTNDGNAILREIQVQHPAAKSMIEISRTQDEEVGDGTTSVIILAGEMLSVAEHFLEQQMHPTVVISAYRMALDDMISTLKKISTPVDVNNREMMLSIINSSITTKVISRWSSLACNIALDAVKTVQFEENGRKEIDIKKYARVEKIPGGIIEDSCVLRGVMINKDVTHPRMRRYIKNPRIVLLDSSLEYKKGESQTDIEITREEDFTRILQMEEEYIHQLCEDIIQLKPDVVITEKGISDLAQHYLMRANVTAIRRVRKTDNNRIARACGARIVSRPEELREDDVGTGAGLLEIKKIGDEYFTFITDCKDPKACTILLRGASKEILSEVERNLQDAMQVCRNVLLDPQLVPGGGASEMAVAHALTEKSKAMTGVEQWPYRAVAQALEVIPRTLIQNCGASTIRLLTSLRAKHTQESCETWGVNGETGTLVDMKELGIWEPLAVKLQTYKTAVETAVLLLRIDDIVSGHKKKGDDQNRQTGAPDAGQE",binds
3,"Rho guanine nucleotide exchange factor (GEF7) (protein, UniProt Q9ES28 1-862) MNSAEQTVTWLITLGVLESPKKTISDPEVFLQASLKDGVVLCRLLERLLPGTIEKVYPEPRNESECLSNIREFLRACGASLRLETFDANDLYQGQNFNKVLSSLVTLNKVTADIGLGSDSVCARPSSHRIKSFDSLGSQSSHSRTSKLLQSQYRSLDMTDNTNSQLVVRAKFNFQQTNEDELSFSKGDVIHVTRVEEGGWWEGTHNGRTGWFPSNYVREIKPSEKPVSPKSGTLKSPPKGFDTTAINKSYYNVVLQNILETEHEYSKELQSVLSTYLRPLQTSDKLSSANTSYLMGNLEEISSFQQVLVQSLEECTKSPEAQQRVGGCFLSLMPQMRTLYLAYCANHPSAVSVLTEHSEDLGEFMETKGASSPGILVLTTGLSKPFMRLDKYPTLLKELERHMEDYHPDRQDIQKSMTAFKNLSAQCQEVRKRKELELQILTEPIRSWEGDDIKTLGSVTYMSQVTIQCAGSEEKNERYLLLFPNLLLMLSASPRMSGFIYQGKLPTTGMTITKLEDSENHRNAFEISGSMIERILVSCTSQQDLHEWVEHLQKQTKVTSVSNPTIKPHSVPSHTLPSHPLTPSSKHADSKPVALTPAYHTLPHPSHHGTPHTTISWGPLEPPKTPKPWSLSCLRPAPPLRPSAALCYKEDLSKSPKTMKKLLPKRKPERKPSDEEFAVRKSTAALEEDAQILKVIEAYCTSAKTRQTLNSTWQGTDLMHNHVLADDDQSSLDSLGRRSSLSRLEPSDLSEDSEYDSIWTAHSYRMGSASRSRKESAPQVLLPEEEKIIVEETKSNGQTVIEEKSLVDTVYALKDEVQELRQDNKKMKKSLEEEQRARKDLEKLVRKVLKNMNDPAWDETNL",binds
4,"chaperonin containing Tcp1, subunit 7 (eta) (protein, UniProt P80313 1-544) MMPTPVILLKEGTDSSQGIPQLVSNISACQVIAEAVRTTLGPRGMDKLIVDGRGKATISNDGATILKLLDVVHPAAKTLVDIAKSQDAEVGDGTTSVTLLAAEFLKQVKPYVEEGLHPQIIIRAFRTATQLAVNKIKEIAVTVKKQDKVEQRKMLEKCAMTALSSKLISQQKVFFAKMVVDAVMMLDELLQLKMIGIKKVQGGALEESQLVAGVAFKKTFSYAGFEMQPKKYKNPKIALLNVELELKAEKDNAEIRVHTVEDYQAIVDAEWNILYDKLEKIHQSGAKVILSKLPIGDVATQYFADRDMFCAGRVPEEDLKRTMMACGGSIQTSVNALVPDVLGHCQVFEETQIGGERYNFFTGCPKAKTCTIILRGGAEQFMEETERSLHDAIMIVRRAIKNDSVVAGGGAIEMELSKYLRDYSRTIPGKQQLLIGAYAKALEIIPRQLCDNAGFDATNILNKLRARHAQGGMWYGVDINNENIADNFQAFVWEPAMVRINALTAASEAACLIVSVDETIKNPRSTVDPPAPSAGRGRGQARFH",binds
5,"ATPase, H+ transporting, lysosomal V1 subunit C2 (protein, UniProt Q99L60 1-427) MSEFWLISAPGDKENLQALERMNNVTSKSNLSHNTKFAIPDFKVGTLDSLVGLSDELGKLDTFAESLIKRMAQSVVEVMEDSKGKAHETLLANGVDLTSFVTHFEWDMAKYPAKQPLVSVVDTLAKQLAQIETDLKSRTAAYSVLKANLENLEKRSTGNLFTRTLSDIVSKEDFVLDSEYLITLLVIVPKSSFAQWQKTYESLSDMVVPRSTKLIAEDNEGGLFTVTLFRKVIEDFKVKAKENKFIVREFYYDEKEIKREREEMTRLLSDKKQQYPTSCVALKKGSATYRDHKVKVAPLGNPARPAAGQTDRDRESEGEGEGPLLRWLKVNFSEAFIAWIHIKALRVFVESVLRYGLPVNFQAVLLQPHKKSATKRLREVLNSVFRHLDEVAAASILDASVEIPGLQLSNQDYFPYVYFHIDLSLLD",binds

# Continued, values first:
row,binding,Molecule
1,binds,"chaperonin containing Tcp1, subunit 2 (beta) (protein, UniProt P80314 1-535) MASLSLAPVNIFKAGADEERAETARLSSFIGAIAIGDLVKSTLGPKGMDKILLSSGRDAALMVTNDGATILKNIGVDNPAAKVLVDMSRVQDDEVGDGTTSVTVLAAELLREAESLIAKKIHPQTIISGWREATKAAREALLSSAVDHGSDEARFWQDLMNIAGTTLSSKLLTHHKDHFTKLAVEAVLRLKGSGNLEAIHVIKKLGGSLADSYLDEGFLLDKKIGVNQPKRIENAKILIANTGMDTDKIKIFGSRVRVDSTAKVAEIEHAEKEKMKEKVERILKHGINCFINRQLIYNYPEQLFGAAGVMAIEHADFAGVERLALVTGGEIASTFDHPELVKLGSCKLIEEVMIGEDKLIHFSGVALGEACTIVLRGATQQILDEAERSLHDALCVLAQTVKDPRTVYGGGCSEMLMAHAVTQLANRTPGKEAVAMESFAKALRMLPTIIADNAGYDSADLVAQLRAAHSEGHITAGLDMKEGTIGDMAVLGITESFQVKRQVLLSAAEAAEVILRVDNIIKAAPRKRVPDHHPC"
2,binds,"chaperonin containing Tcp1, subunit 4 (delta) (protein, UniProt P80315 1-539) MPENVASRSGAPTAGPGSRGKSAYQDRDKPAQIRFSNISAAKAVADAIRTSLGPKGMDKMIQDGKGDVTITNDGATILKQMQVLHPAARMLVELSKAQDIEAGDGTTSVVIIAGSLLDSCTKLLQKGIHPTIISESFQKALEKGLEILTDMSRPVQLSDRETLLNSATTSLNSKVVSQYSSLLSPMSVNAVMKVIDPATATSVDLRDIKIVKKLGGTIDDCELVEGLVLTQKVANSGITRVEKAKIGLIQFCLSAPKTDMDNQIVVSDYAQMDRVLREERAYILNLVKQIKKTGCNVLLIQKSILRDALSDLALHFLNKMKIMVVKDVEREDIEFICKTIGTKPVAHIDQFTADMLGSAELAEEVSLNGSGKLFKITGCTSPGKTVTIVVRGSNKLVIEEAERSIHDALCVIRCLVKKRALIAGGGAPEIELALRLTEYSRTLSGMESYCVRAFADAMEVIPSTLAENAGLNPISTVTELRNRHAQGEKTTGINVRKGGISNILEEMVVQPLLVSVSALTLATETVRSILKIDDVVNTR"
3,binds,"chaperonin containing Tcp1, subunit 8 (theta) (protein, UniProt P42932 1-548) MALHVPKAPGFAQMLKDGAKHFSGLEEAVYRNIQACKELAQTTRTAYGPNGMNKMVINRLEKLFVTNDAATILRELEVQHPAAKMIVMASHMQEQEVGDGTNFVLVFAGALLELAEELLRIGLSVSEVISGYEIACKKAHEILPELVCCSAKNLRDVDEVSSLLRTSIMSKQYGSETFLAKLIAQACVSIFPDSGNFNVDNIRVCKILGSGIYSSSVLHGMVFKKETEGDVTSVKDAKIAVYSCPFDGMITETKGTVLIKTAEELMNFSKGEENLMDAQVKAIAGTGANVIVTGGKVADIALHYANKYNIMLVRLNSKWDLRRLCKTVGATALPKLTPPVQEEMGHCDSVYLSEVGDTQVVVFKHEKEDGAISTIVLRGSTDNLMDDIERAVDDGVNTFKVLTRDKRLVPGGGATEIELAKQITSYGETCPGLEQYAIKKFAEAFEAIPRALAENSGVKANEVISKLYSVHQEGNKNVGLDIEAEVPAVKDMLEASILDTYLGKYWAIKLATNAAVTVLRVDQIIMAKPAGGPKPPSGKKDWDDDQND"
4,binds,"ATPase, H+ transporting, lysosomal V1 subunit G3 (protein, UniProt Q8BMC1 1-118) MTSQSQGIQQLLQAEKRAKDKLDEAKKRKGKRLRQAKEEAVAETDQYRMQMEKDFRLKQAKIMGSQSHLSDEIEEQTLEKIKELNGSYNKCMESVIKQLLSMVCDMKPEVHVNYRATN"
